Test results as given in PubChem BioAssay AID1117319 (Southern Research Institute, 2015).
The campaign covered roughly 260,000 compounds. About 1,500 (0.58%) were called active. The inconclusive results got no clear call from the source; some entries with a clear call stand among them for comparison.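 The calls were made as follows: active = inhibition above a set limit at one or more doses, reproduced on every date tested; inconclusive = results disagree between test dates, or hit never tested in dose response; inactive = the rest.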

By UniProt entry, the sequences of proteins in these tests, tags left out. Where a name states a change or a piece, a line headed by the entry shows the natural chain unless it says otherwise.
UniProt P69720: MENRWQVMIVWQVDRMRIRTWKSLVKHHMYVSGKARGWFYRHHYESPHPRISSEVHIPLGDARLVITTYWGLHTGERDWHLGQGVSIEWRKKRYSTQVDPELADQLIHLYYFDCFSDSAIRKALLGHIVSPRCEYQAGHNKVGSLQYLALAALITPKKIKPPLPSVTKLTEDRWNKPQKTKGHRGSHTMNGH
UniProt P69721: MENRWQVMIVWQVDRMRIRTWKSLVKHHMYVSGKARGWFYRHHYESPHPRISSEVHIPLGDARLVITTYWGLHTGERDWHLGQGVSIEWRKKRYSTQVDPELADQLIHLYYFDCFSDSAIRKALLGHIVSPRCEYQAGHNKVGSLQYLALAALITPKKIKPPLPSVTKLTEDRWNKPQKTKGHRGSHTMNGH
UniProt P69722: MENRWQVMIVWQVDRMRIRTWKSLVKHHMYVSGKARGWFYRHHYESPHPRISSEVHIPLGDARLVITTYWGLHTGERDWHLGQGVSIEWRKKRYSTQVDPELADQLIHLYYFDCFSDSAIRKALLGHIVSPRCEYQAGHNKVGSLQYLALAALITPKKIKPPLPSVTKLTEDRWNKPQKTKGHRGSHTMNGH
UniProt P69723: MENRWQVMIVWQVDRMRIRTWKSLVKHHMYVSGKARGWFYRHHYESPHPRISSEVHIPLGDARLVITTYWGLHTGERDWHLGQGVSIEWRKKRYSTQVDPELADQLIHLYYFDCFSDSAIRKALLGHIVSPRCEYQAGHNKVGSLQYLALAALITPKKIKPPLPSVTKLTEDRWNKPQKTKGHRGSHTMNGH
UniProt Q9HC16: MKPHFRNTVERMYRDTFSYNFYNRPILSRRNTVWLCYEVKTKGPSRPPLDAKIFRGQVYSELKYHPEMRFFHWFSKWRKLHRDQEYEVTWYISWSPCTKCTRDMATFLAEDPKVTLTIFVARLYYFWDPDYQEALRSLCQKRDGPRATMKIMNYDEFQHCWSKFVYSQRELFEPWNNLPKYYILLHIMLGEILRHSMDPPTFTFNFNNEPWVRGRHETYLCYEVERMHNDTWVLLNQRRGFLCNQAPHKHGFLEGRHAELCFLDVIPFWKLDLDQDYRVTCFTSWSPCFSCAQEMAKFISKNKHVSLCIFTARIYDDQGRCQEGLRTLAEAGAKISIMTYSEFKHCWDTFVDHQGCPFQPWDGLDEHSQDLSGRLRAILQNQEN

What follows are molecules tested against Virion infectivity factor (Human immunodeficiency virus type 1 group M subtype B (isolate BH10)) + Virion infectivity factor (Human immunodeficiency virus type 1 group M subtype B (isolate BRU/LAI)) + Virion infectivity factor (Human immunodeficiency virus type 1 group M subtype B (isolate PCV12)) + Virion infectivity factor (Human immunodeficiency virus type 1 group M subtype B (isolate HXB2)) + DNA dC->dU-editing enzyme APOBEC-3G (Homo sapiens) (UniProt P69720+P69721+P69722+P69723+Q9HC16) (assay: inhibitors of Vif binding to APOBEC3G peptide, primary screen, biochemical, TR-FRET, GST-Vif 1-94, biotin-A3G peptide, dose response retest (AID 1117319;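 also: Vif residues 1-94 fused to GST binding biotinylated APOBEC3G peptide 110-148; 0% = full assay without inhibitor and 100% = GST in place of GST-Vif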)). Settings: stronger effect = higher value.

SMILES	inhibition
OC(c1ccccc1)C1CN(Cc2ccccc2)CCC1(O)c1ccccc1 (stereo not given)	inconclusive: 6.6%
O=C1CS/C(=N/N=C/c2ccco2)N1Cc1ccc(F)cc1	inactive: 10.9%
Cc1ccccc1C(=O)c1cccn1CC(=O)NCCCN1CCc2ccccc2C1	inconclusive: 45.5%
Cn1c(=O)c2c(SC3CCCC3)nc(C3CC3)nc2n(C)c1=O	inconclusive: 57.5%
CC(c1cccs1)N(C)Cc1nc(CCc2ccccc2)no1 (stereo not given)	inactive: 2.69%
CCCN(CCC)CCCNC(=O)c1ccc2c(c1)N(CC)C(=O)c1ccccc1S2=O (stereo not given)	inconclusive: 37.1%
O=C(Nc1cccc(C(=O)O)c1)/C(=C\c1ccc2c(c1)OCO2)NC(=O)c1ccc(Br)o1	inconclusive: 43.3%
Cc1nc2ccc(S(=O)(=O)NCC(=O)N3CCN(c4ccccn4)CC3)cc2s1	inconclusive: 29.5%
COc1ccccc1N1CCN(C(=O)c2ccc3nc(-c4ccco4)c(-c4ccco4)nc3c2)CC1	inconclusive: 48.2%
Cc1nc(CS(=O)(=O)c2ccccc2)cc(N2CCOCC2)n1	inconclusive: 35.6%
O=C1c2cc(S(=O)(=O)NCCCO)ccc2-c2ccc(S(=O)(=O)NCCCO)cc21	inconclusive: 48.1%
COc1ccccc1NC(=O)N1CCN(c2cccc(C(F)(F)F)c2)CC1	inconclusive: 35.5%
CC(C)c1nnc(NC(=O)C2CCCCC2)s1	inconclusive: 40.2%
COC(=O)COc1ccc(S(=O)(=O)Nc2ccc3c(c2)OCCO3)cc1Cl	inactive: -0.68%
COc1ccc(/C=N/NC(=O)c2cccc(S(=O)(=O)N3CCCC3)c2)cc1O	inconclusive: 37.8%
O=C(c1cc(-c2cccc(O)c2)on1)N1CCN(C(c2ccccc2)c2ccccc2)CC1	inconclusive: 40.7%
CC1CCC(NC(=O)Cn2c3c(c(-c4ccccc4Cl)cc2=O)CCC3)CC1 (stereo not given)	inconclusive: 45.9%
COc1ccc(C2C3=C(Nc4ncnn42)c2ccccc2CC3)cc1OC (stereo not given)	inconclusive: 52.8%
CC(CCc1ccc(O)cc1)N(C)CCc1ccccc1 (stereo not given)	inconclusive: 53.1%
Cc1c(OCc2nn[nH]n2)ccc2c3c(c(=O)oc12)CCC(C)C3 (stereo not given)	inconclusive: 39.1%
COC(=O)c1cc(COC(=O)c2cccnc2SC)oc1C	inconclusive: 48.6%
CC(C)CCN1C(=O)c2ccc(-c3nc4ccccc4c(=O)o3)cc2C1=O	inconclusive: 39.3%
CC1(CC(=O)O)C(=O)N=C2C=CC=CN21 (stereo not given)	inconclusive: 36.6%

Two entries from above, bar-delimited:
SMILES | inhibition
COC(=O)c1cc(COC(=O)c2cccnc2SC)oc1C | inconclusive: 48.6%
CC(C)CCN1C(=O)c2ccc(-c3nc4ccccc4c(=O)o3)cc2C1=O | inconclusive: 39.3%

Additional compounds:

SMILES	inhibition
O=C(O)C1CCC(NSc2ccccc2[N+](=O)[O-])CC1 (stereo not given)	inactive: -7.35%
O=C(NCc1ccc2c(c1)OCO2)C1CC(=O)N(C2CCCCCCC2)C1 (stereo not given)	inconclusive: 55.8%
COc1cc(NS(=O)(=O)c2ccc(F)cc2)c(OC)cc1NC(C)=O	inconclusive: 37.2%
S=c1[nH]nc(-c2n[nH]c3c2CCC3)n1/N=C/C=C/c1ccco1	inconclusive: 48.4%
CC(O)c1cccc(NC2=CC(=O)CC(C)(C)C2)c1 (stereo not given)	inconclusive: 51.9%
Cc1ccc(-c2csc(NC(=O)CSc3ncn(-c4ccccc4)n3)n2)cc1	inconclusive: 42.5%
CCOCCOC(=O)c1cccc(NC(=O)OCC)c1	inconclusive: 22%
O=C(Nc1ccc(F)cc1)Nc1ccc(N2CCOCC2)c2nonc12	inconclusive: 58%
CC(C)(C)C(=O)Nc1c2c(nc3c1CCC3)CCCC2	inconclusive: 46.1%
O=C1C(c2ccccc2)SC(=Nc2ccccc2)N1S(=O)(=O)c1ccccc1 (stereo not given)	inconclusive: 53.1%
O=S1(=O)CC(NCc2ccccc2)C(Nc2ccccc2)C1 (stereo not given)	inconclusive: 60.6%
O=C(NNC(=O)c1ccc(SCC2CCCO2)c([N+](=O)[O-])c1)c1ccc(F)cc1 (stereo not given)	inconclusive: 50.6%
Cn1c(=O)c2[nH]c(N=Nc3ccc(N)cc3N)nc2n(C)c1=O	inconclusive: 52%
CC1CC(C)CN(S(=O)(=O)c2ccc3c(c2)C(C)(C)C(=O)N3C)C1 (stereo not given)	inconclusive: 57.1%
COc1ccccc1C(c1nnnn1C(C)(C)C)N1CCN(Cc2ccccc2)CC1 (stereo not given)	inconclusive: 38.4%
COc1ccc(Cc2nnc(SCC(=O)NC(C)c3ccccc3)o2)cc1 (stereo not given)	inactive: 8.9%
CCOc1cc(CNCCO)cc(Br)c1OCc1cccs1	inconclusive: 58.9%
O=[N+]([O-])c1cc(C(F)(F)F)ccc1N1CCCNCC1	inconclusive: 33.1%
NC(=O)CSC1=N/C(=C\c2ccco2)C(=O)N1c1ccc(OC(F)F)cc1	inconclusive: 45.6%
C/C(=N\NC(=O)C1CC1c1ccccc1)c1cccs1 (stereo not given)	inconclusive: 36.3%
CSc1nsc(SCc2cnc(C)nc2N)n1	inconclusive: 15.4%
Cc1ccc(-n2c(C)cc(C(=O)COC(=O)c3c(C)noc3C)c2C)cc1	inconclusive: 52.1%
CCN(c1ccccc1)S(=O)(=O)c1ccc2[nH]cc(C(=O)N3CCOCC3)c(=O)c2c1	inconclusive: 34%

SMILES	inhibition
COc1ccc(CCNC(=O)c2oc3ccc(S(=O)(=O)N4CCOCC4)cc3c2C)cc1OC	inconclusive: 40.4%
NNC(=O)c1ncoc1-c1ccc(Cl)cc1	inconclusive: 53.7%
CC1CCc2cc(F)ccc2N1C(=O)CCl (stereo not given)	inconclusive: 45.1%
O=c1c2[nH]c3ccc(F)cc3c2ncn1Cc1ccncc1	inconclusive: 43.7%
O=C(NC(NC(=S)Nc1ccc(Cl)cc1)C(Cl)(Cl)Cl)c1ccco1 (stereo not given)	inconclusive: 38.2%
O=C(Nc1sc2c(c1CN1CCOCC1)CCC2)c1ccc(F)cc1	inconclusive: 37.1%
CN(C)CCCNCC(=O)Nc1ccccc1N1CCOCC1	inconclusive: 33.3%
CC(C)(C)NC(=O)Cn1c(=O)c(=O)n(Cc2ccccc2)c2ccc(Cl)cc21	inactive: -13.9%
O=C(O)CCc1ccc(-c2cccs2)n1Cc1ccco1	inconclusive: 42.8%
O=C1c2ccccc2C(Nc2ccc3c(c2)OCO3)N1Cc1ccco1 (stereo not given)	inconclusive: 47.5%
CCCCCCSC1=C(C#N)C(c2ccc(C)o2)CC(=O)N1 (stereo not given)	inconclusive: 49.8%
CCOc1ccc(CCNS(=O)(=O)c2ccc3c(c2)oc(=O)n3C)cc1OCC	inactive: 13.6%
N#C/C(=C\c1ccncc1)c1nc2ccccc2[nH]1	inconclusive: 48.7%
O=c1[nH]c2ccccc2nc1/C=C(\O)C(F)F	inconclusive: 47%
Cc1nn(C)c(C)c1S(=O)(=O)Nc1ccc2c(c1)OCO2	inconclusive: 36.1%
COc1ccccc1CN1C[C@@H]2C[C@@H](c3[nH]c4ccc(C)cc4c3C)N3CCC[C@@]23C1=O	inconclusive: 55.2%
Cc1nnc(SCC(=O)N2CCc3ccccc32)s1	inconclusive: 36.5%
O=C(O)C1CCCN1c1nc(C(F)(F)F)nc2ccccc12 (stereo not given)	inconclusive: 39.1%
CCOc1ccc2oc(C(=O)OCC(=O)NC(=O)NC3CCCC3)c(C)c2c1	inconclusive: 52.6%
COc1ccc(-c2nnc(Nc3nc4c(OC)cccc4s3)o2)cc1	inconclusive: 40.8%
COc1ccc(NC(=O)Nc2cccnc2)cc1	inconclusive: 54.9%
CC(/C=N/NC(=O)CN1CCN(Cc2ccc(Cl)cc2)CC1)=C\c1ccco1	inconclusive: 36.5%
COC(=O)c1cc(C)cc(=O)o1	inconclusive: 47.4%

Five compounds drawn at random from the list so far, as already listed:
SMILES	inhibition
O=C1c2cc(S(=O)(=O)NCCCO)ccc2-c2ccc(S(=O)(=O)NCCCO)cc21	inconclusive: 48.1%
O=C1CS/C(=N/N=C/c2ccco2)N1Cc1ccc(F)cc1	inactive: 10.9%
CC(O)c1cccc(NC2=CC(=O)CC(C)(C)C2)c1 (stereo not given)	inconclusive: 51.9%
COc1cc(NS(=O)(=O)c2ccc(F)cc2)c(OC)cc1NC(C)=O	inconclusive: 37.2%
O=[N+]([O-])c1cc(C(F)(F)F)ccc1N1CCCNCC1	inconclusive: 33.1%

The listing continues:

SMILES	inhibition
Cc1ccc(S(=O)(=O)N2CCC(=O)N2)cc1	inconclusive: 40%
NC(=O)c1sc2nc(-c3ccco3)ccc2c1N	inactive: 25.6%
CC(C)OC(=O)CN1C(=O)S/C(=C/c2ccc(N3CCCCC3)o2)C1=O	inconclusive: 24.1%
CC(C)(C)OC(=O)N1CC=C2C(C#N)=C(N)C(C#N)(C#N)C(c3cccs3)C2C1 (stereo not given)	inactive: 5.47%
CC(=O)N(Cc1ccccc1)c1ccccc1C(=O)O	inconclusive: 38.8%
Cc1ccccc1CC1(CO)CCCN(Cc2ccc3c(c2)OCCO3)C1 (stereo not given)	inconclusive: 36.7%
Cc1ccc(S(=O)(=O)N(C)C)cc1NC(=O)COC(=O)COc1ccccc1[N+](=O)[O-]	inconclusive: 51%
O=C1OC(c2ccc(Cl)cc2)=C/C1=C/c1cccnc1	inactive: 1.36%
Cc1cccc(C(=O)Nc2ccc(C(=O)N/N=C/c3ccco3)cc2)c1	inconclusive: 41.2%
COC(=O)C1=C(C)NC2=C(C(=O)C(C(=O)OC)C(c3ccc(OC)cc3)C2)C1c1ccccn1 (stereo not given)	inconclusive: 48.2%
CCOC(=O)c1c(NC(=O)COc2ncnc3ccccc23)sc(C)c1CC	inconclusive: 38.9%
COc1ccc(-c2nn[nH]n2)cc1OC	inconclusive: 40.8%
Cc1ccc(C(=O)NC(NC(=S)Nc2ccc(S(N)(=O)=O)cc2)C(Cl)(Cl)Cl)cc1 (stereo not given)	inconclusive: 45%
COCCN(CCOC)Cc1c(O)ccc2c1O/C(=C\c1ccco1)C2=O	inactive: 25.4%
CC(=O)N1c2ccc(Cl)cc2C2C=CCC2C1c1cccc2ccccc12 (stereo not given)	inactive: 19.4%
COc1ccc(N2C(=O)CC(n3c(CCCCO)nc4ccccc43)C2=O)cc1 (stereo not given)	inconclusive: 44.7%
CC(=O)c1c(C)[nH]c(C(=O)N2CCN(S(=O)(=O)c3ccc(C)cc3C)CC2)c1C	inconclusive: 38.1%
Cn1nc(C(F)(F)F)c(C#N)c1N1CCN(c2ccccc2)CC1	inconclusive: 36.3%
O=C(O)C1Nc2c(C(F)(F)F)ccc(Cl)c2C2C=CCC12 (stereo not given)	inactive: 24.9%
O=c1[nH]c(=O)n(Cc2ccccc2)c2nc(-c3ccco3)cc(C(F)(F)F)c12	inconclusive: 52.2%
COc1ccc(-c2[nH]ncc2-c2cnn(-c3ccccc3)c2)c(O)c1	inconclusive: 46.6%
